# Measured values from the supplement of paper PMC8256030.
# Values joined by “and” are separate entries in the source; they are usually repeats but may differ in a detail not shown here. Equal entries are not always repeated. The list shows a part of the results. Single values are uncertain here, since repeats match poorly.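 HEK293T cells were given each compound shortly before transfection with a reporter in which red mCherry is followed by the SARS-CoV-2 frameshift element and then GFP in the −1 frame, so GFP appears only after frameshifting.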
# Test system: HEK293T
# Test: percent viability (nuclei count) relative to control; higher = more viable cells
# Conditions: 10 µM; 24 h
row,Structure (SMILES),percent viability
1,CS(=O)(=O)c1cc(C2(NC(=O)c3cncc4c3cnn4-c3ccc(F)cc3)CC2)ccn1,43.2%
2,NNC(=O)c1ccncc1 [isoniazid],261% and 176%
3,CC(=O)Nc1cccc(O)c1 [metacetamol],27%
4,CC(C)(C#N)c1cc(Cn2cncn2)cc(C(C)(C)C#N)c1 [anastrozole],130% and 331%
5,Fc1ccc([C@@H]2CCNC[C@H]2COc2ccc3c(c2)OCO3)cc1 [paroxetine],390% and 300%
6,C=C1CC[C@H](O)C/C1=C/C=C1\CCC[C@]2(C)[C@@H]([C@H](C)CC[C@@H](O)C(C)(C)O)CC[C@@H]12 [secalciferol],238%
7,CCCCC(CC)COc1ccc(-c2nc(-c3ccc(OC)cc3)nc(-c3ccc(OCC(CC)CCCC)cc3O)n2)c(O)c1 (stereo unspecified),181%
8,CCC(C)(C)c1ccc(OCCCCCCN2CCN(c3ccc(C)c(Cl)c3)CC2)cc1 [teroxalene],123%
9,CCc1nc(N)nc(N)c1-c1ccc(Cl)cc1 [pyrimethamine],193%
10,O=C(CCCc1ccccc1)OCC(COC(=O)CCCc1ccccc1)OC(=O)CCCc1ccccc1 [glycerol phenylbutyrate],326%
11,CN(C)C[C@@H]1CCn2cc(c3ccccc32)C2=C(C(=O)NC2=O)c2cn(c3ccccc23)CCO1,125%
12,CC(=O)OC/C=C(C)/C=C/C=C(C)/C=C/C1=C(C)CCCC1(C)C [Vitamin A acetate],299%
13,NC(N)=NS(=O)(=O)c1ccc(N)cc1,171%
14,CO/N=C(\C(=O)N[C@@H]1C(=O)N2C(C(=O)[O-])=C(C[N+]3(C)CCCC3)CS[C@H]12)c1csc(N)n1 [Cefepime],164%
15,CCC(C)(C)c1ccc(CC(C)CN2C[C@@H](C)O[C@@H](C)C2)cc1 (stereo partly specified) [amorolfine],240% and 275%
16,Cc1cc(C(=O)NCCc2ccc(S(=O)(=O)NC(=O)NN3CCCCCC3)cc2)no1 [glisoxepide],399%
17,CO[C@H]1/C=C/O[C@@]2(C)Oc3c(C)c(O)c4c(O)c(c(/C=N/N5CCN(C)CC5)c(O)c4c3C2=O)NC(=O)/C(C)=C\C=C\[C@H](C)[C@H](O)[C@@H](C)[C@@H](O)[C@@H](C)[C@H](OC(C)=O)[C@@H]1C,140%
18,COc1cc2nccc(Oc3ccc(NC(=O)NC4CC4)c(Cl)c3)c2cc1C(N)=O [Lenvatinib],337%

row,Structure (SMILES),percent viability
1,CCCCCCCCCCCCCCCC(=O)OC/C=C(C)/C=C/C=C(C)/C=C/C1=C(C)CCCC1(C)C,265%
2,NC(=O)c1ncn([C@@H]2O[C@H](CO)[C@@H](O)[C@H]2O)c1O [mizoribine],170%
3,C[C@H](CCC(=O)O)[C@H]1CC[C@H]2[C@@H]3CC[C@@H]4C[C@H](O)CC[C@]4(C)[C@H]3C[C@H](O)[C@]12C [Deoxycholic Acid],319%
4,O=C1c2ccccc2C(=O)C1c1ccc(Cl)cc1 [clorindione],278%
5,O=C1CN(/N=C/c2ccc([N+](=O)[O-])o2)C(=O)N1CO [nifurtoinol],157%
6,C[C@@H]1C(=O)NC2=Nc3cccc(Cl)c3CN21 [quazinone],271%
7,CCOc1cc(CC(=O)N[C@@H](CC(C)C)c2ccccc2N2CCCCC2)ccc1C(=O)O [repaglinide],164%
8,COC(=O)N[C@H](C(=O)N[C@@H](Cc1ccccc1)[C@@H](O)CN(Cc1ccc(-c2ccccn2)cc1)NC(=O)[C@@H](NC(=O)OC)C(C)(C)C)C(C)(C)C [atazanavir],282%
9,NC(=O)C1=CN([C@@H]2O[C@H](COP(=O)(O)OP(=O)(O)OC[C@H]3O[C@@H](n4cnc5c(N)ncnc54)[C@H](O)[C@@H]3O)[C@@H](O)[C@H]2O)C=CC1,159%
10,O=C(O)c1ccccc1NCCc1ccccc1 [enfenamic acid],226%
11,NCCCC(=O)O,183%
12,CC(C)OC(=O)c1cc2c(OCC(O)CNC(C)(C)C)cccc2[nH]1 (stereo unspecified) [carpindolol],183%
13,CC(=O)OC[C@H]1O[C@@H](n2ccc(=O)[nH]c2=O)[C@H](OC(C)=O)[C@@H]1OC(C)=O [Uridine triacetate],269%
14,CN1C2CCCC1CC(NC(=O)c1nn(C)c3ccccc13)C2 (stereo unspecified),143%
15,CC(O)C(N)C(=O)O (stereo unspecified),19.9%
16,N[C@H]1C(O)O[C@H](CO)[C@@H](O)[C@@H]1O (stereo partly specified),173% and 193%
17,Cc1nc(-c2ccc(OCC(C)C)c(C#N)c2)sc1C(=O)O [febuxostat],200%
18,NC(=O)C1c2ccccc2CCc2ccccc21 [cyheptamide],176%

# 2 of the compounds above, tab-delimited:
row	Structure (SMILES)	percent viability
2	NNC(=O)c1ccncc1 [isoniazid]	261% and 176%
3	CC(=O)Nc1cccc(O)c1 [metacetamol]	27%
